Nine substances from publication PMC4847484 (Chemical Communications (Cambridge, England), 2015) can be followed below.

A value given as a limit tells only on which side of the number the result lay.

Data set [1] in a line: general procedure: peptide synthesis; pre-loaded glycine chlorotrityl resin. The following applies: cyclisation step; run 1.
Data set [2] is described as follows: peptide made by a vendor (peptide synthesis; pre-loaded glycine chlorotrityl resin). Particulars: whole synthesis.

“H-ACSDRFRNCPADEALCG-NH2 (cysteine pairing not given here) [LDD]” displayed a cyclisation yield in data set [1] of 24%.

For “H-ACSDRFRNCPADEALCG-NH2 (cysteine pairing not given here) [DLD]”, in data set [1], the cyclisation yield was 16%.

As to “H-ACSDRFRNCPADEALCG-NH2 (cysteine pairing not given here) [LDL]”, the cyclisation yield in data set [1] is 16%.

As for “H-ACSDRFRNCPADEALCG-NH2 (cysteine pairing not given here) [LLD]”, the cyclisation yield in data set [1] came out at 10%.

Turning to “H-ACSDRFRNCPADEALCG-NH2 (cysteine pairing not given here) [DLL]”, the cyclisation yield in data set [1] came out at 26%.

As for “H-ACSDRFRNCPADEALCG-NH2 (cysteine pairing not given here) [PK15]”, the cyclisation yield in data set [1] is 29%.

On to “H-LTFCEYWAQLCSAA-OH (cysteine pairing not given here)”, for which the “purity (crude or final not stated)” value in data set [2] was greater than 80% purity.

In turn, “H-ACSDRFRNCPADEALCG-NH2 (cysteine pairing not given here) [DDD]” gave a cyclisation yield in data set [1] of 26%.

“H-ACSDRFRNCPADEALCG-NH2 (cysteine pairing not given here) [DDL]” returned a cyclisation yield in data set [1] of 26%.
